Source: PubChem BioAssay AID1671190 (National Center for Advancing Translational Sciences (NCATS), 2021)
The campaign covered roughly 580,000 compounds. About 6,100 (1.1%) were called active. The shares of active, inactive and inconclusive entries below differ from those in the screen. The call rests on the fitted dose curve; in most records, active means well fitted inhibition curve with a large enough effect; inconclusive means small, poorly fitted or top-dose-only effect, or another doubt; inactive means no such curve, though single readings can be large or run the other way. Where the call is inconclusive, the potency comes from a doubtful curve fit.

Chains of the proteins cited; added tags and fusions are not shown. Lines headed by an entry give the natural chain unless they say otherwise; changes in a name come on top.
UniProt P18054: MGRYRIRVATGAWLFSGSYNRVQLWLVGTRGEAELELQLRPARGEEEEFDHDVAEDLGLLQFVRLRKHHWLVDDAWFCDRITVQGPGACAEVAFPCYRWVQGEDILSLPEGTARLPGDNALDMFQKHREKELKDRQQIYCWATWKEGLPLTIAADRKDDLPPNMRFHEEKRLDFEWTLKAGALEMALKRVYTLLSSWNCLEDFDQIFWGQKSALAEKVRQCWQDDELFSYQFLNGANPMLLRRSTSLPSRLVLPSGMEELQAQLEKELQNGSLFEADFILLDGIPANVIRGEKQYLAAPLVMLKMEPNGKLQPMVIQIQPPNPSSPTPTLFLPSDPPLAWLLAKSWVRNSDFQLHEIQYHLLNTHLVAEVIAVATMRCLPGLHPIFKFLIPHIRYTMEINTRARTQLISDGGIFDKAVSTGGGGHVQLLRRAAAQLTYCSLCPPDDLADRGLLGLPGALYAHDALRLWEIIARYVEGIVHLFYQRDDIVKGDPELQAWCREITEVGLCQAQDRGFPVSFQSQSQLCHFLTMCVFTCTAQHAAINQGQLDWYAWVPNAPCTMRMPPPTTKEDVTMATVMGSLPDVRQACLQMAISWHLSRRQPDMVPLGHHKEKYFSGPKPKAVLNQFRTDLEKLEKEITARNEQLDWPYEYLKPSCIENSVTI

Biological target: Polyunsaturated fatty acid lipoxygenase ALOX12 (Homo sapiens) (UniProt P18054)
Assay: Primary qHTS assay for inhibitors of human arachidonate 12S-lipoxygenase (ALOX12): Round 2
Conditions: purified 12hLO, xylenol orange hydroperoxide absorbance; activity change, negative = inhibition: at 108 µM (top of the series) unless noted
Summary of the method: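 Hydroperoxide product was detected by ferrous iron/xylenol orange as the 573 to 405 nm absorbance ratio. Arachidonic acid at 40 uM (final) was turned over for 30 min at room temperature by 150 nM human 12hLO, pH 7.0 Hepes buffer, after 15 min compound preincubation.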
On the % scale 0 is the no-effect control and ±100 the full control effect; potency means the concentration at half of the fitted maximal effect.

How did the Potency turn out when `O=C(CSc1ccc2ccccc2n1)N/N=C/c1ccc(O)cc1` was run?
Its Potency is “inactive”.

Which Potency does the source give for `COc1ccc(NC(=O)c2sc(N3CCOCC3)nc2-c2ccccc2)c(OC)c1` here?
The Potency was inconclusive: 70.8 µM [inhibitor, partial curve, poor fit].

`O=C(O)c1cccc(NC(=S)NC(=O)c2ccc(-c3ccc(Cl)cc3)o2)c1` was tested. Which Potency did it give?
The Potency was active: 12.6 µM.

Which Potency does the source give for `Nc1nc(CSc2ncn(-c3ccccc3)n2)cs1` here?
The Potency was inconclusive: 39.8 µM [inhibitor, partial curve, poor fit].

`COc1ccc(-c2cc(C)no2)cc1S(=O)(=O)CCC(=O)Nc1cccc(Cl)c1` was tested. Which Potency did it give?
The Potency was “inactive”.

For `Cc1ccc(C(=O)OCc2nc3ccsc3c(=O)[nH]2)o1`, which Potency is on record?
The Potency was “inactive”.

Which Potency does the source give for `CC(C)CC(=O)Nc1ccc(C(N)=O)c(Cl)c1` here?
Its Potency is inconclusive: 12.6 µM [inhibitor, full curve, poor fit].

Which Potency does the source give for `CNC(=O)c1cccc(I)c1` here?
The Potency was inconclusive: 39.8 µM [inhibitor, single point].

How did the Potency turn out when `CCOc1cc(-c2nc(C3CC(=O)N(c4ccc(OC)cc4)C3)no2)cc(OCC)c1OCC` (centres undefined) was run?
The Potency was “inactive”.

With `Cc1cccc(-c2nnc(SCc3cn4cccc(C)c4n3)o2)c1` as the compound, how does the Potency read?
The Potency was inconclusive: 158 µM [inhibitor, partial curve, poor fit].

`O=C(NC(=S)NCCC1=CCCCC1)c1ccccc1Br` was tested. Which Potency did it give?
Its Potency is active: 15.8 µM.

Which Potency does the source give for `Cc1ccccc1CCC1CCCNC1` (centres undefined) here?
The Potency was inconclusive: 1.78 µM [inhibitor, full curve, poor fit].

Which Potency does the source give for `Cn1c(Cn2cncn2)nnc1C1CCN(Cc2ccc3ccccc3n2)CC1` here?
Its Potency is inconclusive: 5.62 µM [inhibitor, full curve, poor fit].

With `CCC(=O)Nc1cc(NC(=O)CC)cc(-c2nc3ccccc3o2)c1` as the compound, how does the Potency read?
Its Potency is “inactive”.

Which Potency does the source give for `Cc1ccc(NCc2ccccc2F)cc1` here?
Its Potency is inconclusive: 39.8 µM [inhibitor, partial curve, poor fit].

With `Cc1c(CCC(=O)NCc2ccc(F)cc2)c(=O)oc2cc(O)ccc12` as the compound, how does the activity change, negative = inhibition read?
Its activity change, negative = inhibition is inconclusive: -30.4% [inhibitor].

Which Potency does the source give for `O=C(O)CNS(=O)(=O)c1cc(C(F)(F)F)cc(C(F)(F)F)c1` here?
Its Potency is inconclusive: 8.91 µM [inhibitor, partial curve, poor fit].

`CCCc1cc(=O)[nH]c(SCc2nnc(-c3cc(OC)c(OC)c(OC)c3)o2)n1` was tested. Which Potency did it give?
The Potency was “inactive”.

With `COc1cc(-c2nnc3n2N=C(c2ccccc2)CS3)cc(OC)c1OC` as the compound, how does the Potency read?
Its Potency is inconclusive: 141 µM [inhibitor, single point].

`COc1cccc(C(=O)NCC(=O)N2CCN(c3ccc(C(F)(F)F)cn3)CC2)c1` was tested. Which Potency did it give?
Its Potency is inconclusive: 56.2 µM [inhibitor, partial curve, poor fit].

Which Potency does the source give for `C=CCOC(=O)C(=O)/C=C/c1csc2ccccc12` here?
The Potency was inconclusive: 44.7 µM [inhibitor, partial curve, poor fit].

`O=C(O)c1cc2nc3c(c(C(F)(F)F)n2n1)CCCC3` was tested. Which Potency did it give?
Its Potency is inconclusive: 70.8 µM [inhibitor, partial curve, poor fit].

How did the Potency turn out when `CCCCCCCCN1C(=O)[C@H](CC(=O)NCCC(C)C)C[C@@]2(C(=O)OCC)CCCC=C12` was run?
The Potency was inconclusive: 44.7 µM [inhibitor, partial curve, poor fit].

With `O=C(CSc1nc2ccccc2[nH]1)Nc1ccc2[nH]c(=O)[nH]c2c1` as the compound, how does the Potency read?
The Potency was inconclusive: 112 µM [inhibitor, single point].

Which Potency does the source give for `C#CCOCCOCCOCCNc1nc(N2CCN(C(=O)Cn3cc(CCCN=C(N)N)nn3)CC2)nc(N2CCN(C(=O)[C@H](C(C)C)n3cc(CCO)nn3)CC2)n1` here?
Its Potency is inconclusive: 15.8 µM [inhibitor, full curve].

Which Potency does the source give for `CC(C)(C)c1ccc(C(=O)NCC(=O)OCc2ncc(-c3ccccc3)o2)cc1` here?
Its Potency is inconclusive: 126 µM [inhibitor, partial curve, poor fit].

`O=C(Cc1cccc(Cl)c1)N1CCCC(c2nn(-c3cccc(Cl)c3)c(=O)[nH]2)C1` (centres undefined) was tested. Which Potency did it give?
The Potency was active: 15.8 µM.

How did the Potency turn out when `O=C(/C=C/c1ccco1)Nc1ccccc1C(=O)O` was run?
The Potency was inconclusive: 20 µM [inhibitor, full curve, poor fit].

With `O=S(=O)(NC1CCCCCCC1)c1ccccc1` as the compound, how does the Potency read?
Its Potency is “inactive”.

Which Potency does the source give for `COc1ccc(C=O)cc1COc1ccc(F)cc1F` here?
The Potency was “inactive”.

With `CC(c1ccccc1)n1c(-c2ccc(Cl)cc2)n[nH]c1=S` (centres undefined) as the compound, how does the Potency read?
Its Potency is inconclusive: 79.4 µM [inhibitor, single point].

With `O=C(CN1CCN(c2ccccn2)CC1)Nc1ccc(Oc2ccccc2)cc1` as the compound, how does the Potency read?
The Potency was inconclusive: 112 µM [inhibitor, single point].

How did the Potency turn out when `COc1ccc(NC(=O)COc2ccccc2C(N)=O)cc1S(=O)(=O)N1CCCCC1` was run?
The Potency was “inactive”.

`C[N+]1(CN2C(=O)C3C4C=CC(C4)C3C2=O)CCCCC1` (centres undefined) was tested. Which Potency did it give?
Its Potency is inconclusive: 44.7 µM [inhibitor, partial curve, poor fit].

Which Potency does the source give for `O=C(O)c1ccc(CNCc2ccco2)cc1` here?
Its Potency is inconclusive: 39.8 µM [inhibitor, partial curve, poor fit].

`O=C1CSc2ccc(C(=O)OCc3cc(-c4ccccc4)on3)cc2N1` was tested. Which Potency did it give?
The Potency was inconclusive: 44.7 µM [inhibitor, partial curve].

`OCCOCCn1c(C(CO)Nc2nc(-c3ccccc3Br)cs2)nc2ccccc21` (centres undefined) was tested. Which Potency did it give?
Its Potency is “inactive”.

How did the Potency turn out when `O=C(CCNS(=O)(=O)/C=C/c1ccccc1)Nc1cc(Cl)cc(Cl)c1` was run?
The Potency was inconclusive: 22.4 µM [inhibitor, partial curve, poor fit].

`Cc1cc(C)cc(NC(=O)CSc2nnc(Cc3cccn3C)n2-c2ccc(F)cc2)c1` was tested. Which Potency did it give?
The Potency was “inactive”.

For `CC(=O)Nc1nnc(-c2c(-c3c(Cl)cccc3Cl)noc2C)o1`, which Potency is on record?
Its Potency is inconclusive: 70.8 µM [inhibitor, partial curve, poor fit].

For `Cc1cccc(CNc2ccnc(-c3ccoc3)n2)c1`, which Potency is on record?
The Potency was active: 20 µM.

`O=C(NC(=S)NCc1cccnc1)c1ccccc1F` was tested. Which Potency did it give?
The Potency was inconclusive: 89.1 µM [inhibitor, partial curve, poor fit].

Which Potency does the source give for `COc1ccc(C2c3c(oc4cc(C)cc(C)c4c3=O)C(=O)N2Cc2ccco2)cc1OC` (centres undefined) here?
Its Potency is inconclusive: 100 µM [inhibitor, partial curve, poor fit].

Which Potency does the source give for `O=C(C1CCCCC1)N1C[C@@H](O)[C@H](n2cc(-c3ccc(F)cc3)nn2)C[C@@H]1c1ccc(Cl)cc1` here?
Its Potency is inconclusive: 79.4 µM [inhibitor, single point].
